Experimental data taken from patent US20130165328, “APPARATUS AND METHODS FOR KINETIC ANALYSIS AND DETERMINATION OF NUCLEIC ACID SEQUENCES” (ILLUMINA, INC., published 2013).

Molecular target: T1, BSU DNA polymerase I second Ser after 6xHis tag replaced by Cys (in tag) (Bacillus subtilis) (UniProt O34996)
T1 sequence (looked up, limits assumed): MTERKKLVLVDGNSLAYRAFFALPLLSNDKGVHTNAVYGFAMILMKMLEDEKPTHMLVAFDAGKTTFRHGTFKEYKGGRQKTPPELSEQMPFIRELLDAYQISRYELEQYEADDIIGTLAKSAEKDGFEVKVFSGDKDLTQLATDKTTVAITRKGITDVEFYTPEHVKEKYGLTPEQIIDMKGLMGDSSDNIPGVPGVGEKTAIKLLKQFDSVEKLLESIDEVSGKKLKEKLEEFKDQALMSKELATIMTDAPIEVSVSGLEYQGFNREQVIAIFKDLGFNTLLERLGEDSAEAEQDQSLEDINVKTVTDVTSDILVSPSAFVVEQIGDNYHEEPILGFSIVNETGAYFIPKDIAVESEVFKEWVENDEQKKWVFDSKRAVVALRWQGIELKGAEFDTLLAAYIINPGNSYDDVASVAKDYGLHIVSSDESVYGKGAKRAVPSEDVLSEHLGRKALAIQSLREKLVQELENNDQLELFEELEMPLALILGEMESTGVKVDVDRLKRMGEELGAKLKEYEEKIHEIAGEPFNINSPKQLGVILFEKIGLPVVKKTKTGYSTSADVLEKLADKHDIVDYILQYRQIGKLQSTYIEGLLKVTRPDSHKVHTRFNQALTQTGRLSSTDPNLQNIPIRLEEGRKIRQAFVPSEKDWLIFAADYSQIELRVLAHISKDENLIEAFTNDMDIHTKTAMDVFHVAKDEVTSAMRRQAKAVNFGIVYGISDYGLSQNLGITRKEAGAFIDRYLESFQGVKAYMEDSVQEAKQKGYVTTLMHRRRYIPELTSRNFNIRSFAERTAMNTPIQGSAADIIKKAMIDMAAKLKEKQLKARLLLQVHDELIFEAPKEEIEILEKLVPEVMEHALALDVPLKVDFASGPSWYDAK
Experiment: activity assay
Conditions: quench-flow kpol for dCTP; nucleotide Kd,app 29.1 uM (not DNA Kd); 300 mM NaCl, 10 mM MgSO4, 45 C; purified recombinant protein; label: 5'-Cy5 primer

GCTTGCACAGGGCCTCGAC / CGTTAGTAAGGTCGAGGCCCTGTGCAAGC [19/36 mer primer/template duplex (Cy5-labelled)]
activity on this sequence: active

Protein sequences can lack the tags named with them.
